Laboratory results published in publication PMC7762262.
These are yes or no findings as the source states them, for the method shown. In cells and extracts the contact can be indirect. Some binding calls cover weakened binding; strength is not graded here.

Sequences of proteins named here, by UniProt entry; tags and fusion partners are left off.
UniProt Q9UKI8: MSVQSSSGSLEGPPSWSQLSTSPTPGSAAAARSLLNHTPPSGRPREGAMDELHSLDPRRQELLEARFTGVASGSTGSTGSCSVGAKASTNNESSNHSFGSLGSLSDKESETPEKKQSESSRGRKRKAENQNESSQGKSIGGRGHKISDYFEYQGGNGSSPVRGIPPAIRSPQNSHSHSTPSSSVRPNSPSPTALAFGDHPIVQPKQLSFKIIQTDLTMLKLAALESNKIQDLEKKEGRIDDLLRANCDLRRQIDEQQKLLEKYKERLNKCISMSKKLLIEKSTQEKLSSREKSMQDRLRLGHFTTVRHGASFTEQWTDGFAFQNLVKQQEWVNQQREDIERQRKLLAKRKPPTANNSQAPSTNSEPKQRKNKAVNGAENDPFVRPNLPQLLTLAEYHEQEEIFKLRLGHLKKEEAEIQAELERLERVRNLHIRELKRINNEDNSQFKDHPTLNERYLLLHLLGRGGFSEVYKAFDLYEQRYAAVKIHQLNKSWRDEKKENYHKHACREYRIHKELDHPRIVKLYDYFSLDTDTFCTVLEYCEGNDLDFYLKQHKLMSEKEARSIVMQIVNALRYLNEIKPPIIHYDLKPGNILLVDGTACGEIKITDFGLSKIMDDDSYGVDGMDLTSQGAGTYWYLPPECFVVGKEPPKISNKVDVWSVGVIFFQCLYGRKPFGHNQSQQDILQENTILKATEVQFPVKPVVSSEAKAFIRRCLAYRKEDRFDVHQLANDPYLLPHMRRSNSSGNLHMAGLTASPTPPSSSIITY
UniProt P46937: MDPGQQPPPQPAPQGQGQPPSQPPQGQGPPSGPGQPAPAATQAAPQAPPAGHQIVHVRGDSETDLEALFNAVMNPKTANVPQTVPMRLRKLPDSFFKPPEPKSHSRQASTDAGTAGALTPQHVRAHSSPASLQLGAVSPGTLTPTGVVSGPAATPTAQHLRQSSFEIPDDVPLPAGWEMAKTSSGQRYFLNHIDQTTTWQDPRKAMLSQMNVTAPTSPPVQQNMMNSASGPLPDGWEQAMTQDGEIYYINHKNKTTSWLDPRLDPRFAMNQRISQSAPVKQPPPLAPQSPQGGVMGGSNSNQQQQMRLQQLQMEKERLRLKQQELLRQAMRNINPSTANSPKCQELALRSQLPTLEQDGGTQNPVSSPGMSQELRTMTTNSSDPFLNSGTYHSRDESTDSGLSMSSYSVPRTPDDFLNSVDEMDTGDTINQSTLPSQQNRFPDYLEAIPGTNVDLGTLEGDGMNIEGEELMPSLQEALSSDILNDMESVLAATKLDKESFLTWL

Molecular target: T1, never in mitosis gene A (NIMA)-related kinase 1 (NEK1) (UniProt Q96PY6)
T1 sequence: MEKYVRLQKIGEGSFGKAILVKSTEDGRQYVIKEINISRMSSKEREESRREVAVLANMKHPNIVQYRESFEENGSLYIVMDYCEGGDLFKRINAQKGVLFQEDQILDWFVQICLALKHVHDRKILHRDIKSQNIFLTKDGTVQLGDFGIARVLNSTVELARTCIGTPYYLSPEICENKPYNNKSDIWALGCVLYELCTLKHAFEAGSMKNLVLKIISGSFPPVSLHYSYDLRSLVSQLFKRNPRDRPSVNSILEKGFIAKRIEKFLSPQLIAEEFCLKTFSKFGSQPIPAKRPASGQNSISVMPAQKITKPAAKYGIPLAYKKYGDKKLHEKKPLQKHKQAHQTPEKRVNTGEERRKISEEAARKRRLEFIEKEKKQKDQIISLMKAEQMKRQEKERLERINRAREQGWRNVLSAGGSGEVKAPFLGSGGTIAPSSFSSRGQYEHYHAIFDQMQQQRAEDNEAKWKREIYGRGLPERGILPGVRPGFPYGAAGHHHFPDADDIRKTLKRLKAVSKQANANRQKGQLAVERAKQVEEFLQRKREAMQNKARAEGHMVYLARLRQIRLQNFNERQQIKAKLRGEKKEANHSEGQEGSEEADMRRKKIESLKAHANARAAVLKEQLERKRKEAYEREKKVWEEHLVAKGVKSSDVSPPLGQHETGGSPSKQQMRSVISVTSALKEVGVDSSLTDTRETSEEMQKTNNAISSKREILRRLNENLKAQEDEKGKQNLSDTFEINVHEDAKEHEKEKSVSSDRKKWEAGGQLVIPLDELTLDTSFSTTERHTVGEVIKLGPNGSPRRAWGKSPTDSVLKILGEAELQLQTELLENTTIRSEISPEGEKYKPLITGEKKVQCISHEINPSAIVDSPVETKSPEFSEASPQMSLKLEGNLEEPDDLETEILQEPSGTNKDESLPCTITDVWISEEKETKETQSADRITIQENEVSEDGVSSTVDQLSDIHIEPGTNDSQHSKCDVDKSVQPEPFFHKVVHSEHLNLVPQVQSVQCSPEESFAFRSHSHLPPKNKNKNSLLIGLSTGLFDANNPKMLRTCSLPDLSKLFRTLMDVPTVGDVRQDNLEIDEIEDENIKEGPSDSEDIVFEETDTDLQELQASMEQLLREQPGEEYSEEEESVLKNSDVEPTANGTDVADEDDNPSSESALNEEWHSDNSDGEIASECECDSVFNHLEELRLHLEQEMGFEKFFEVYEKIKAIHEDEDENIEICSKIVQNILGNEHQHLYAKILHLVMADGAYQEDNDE
Assay: co-IP; mouse anti-NEK1 antibody (or mouse IgG) on protein A/G agarose; 500 µg of lysate in 1X RIPA buffer, overnight at 4 °C; beads washed thrice; Western blot; cells with or without 10 µM THD (TLK inhibitor)

tousled-like kinase 1 (TLK1) (from UniProt Q9UKI8 1-766)
binding: binds

yes-associated protein 1 (YAP1) (from UniProt P46937 1-504)
binding: binds
